Laboratory results: patent publication US20130089872A1
Results are given in words; binding and its absence hold for the method and conditions named. Some binding calls cover weakened binding; strength is not graded here.

Target: T1, hmTROP-2-B chimeric protein (human; mouse), Q8BGV3
T1 chain: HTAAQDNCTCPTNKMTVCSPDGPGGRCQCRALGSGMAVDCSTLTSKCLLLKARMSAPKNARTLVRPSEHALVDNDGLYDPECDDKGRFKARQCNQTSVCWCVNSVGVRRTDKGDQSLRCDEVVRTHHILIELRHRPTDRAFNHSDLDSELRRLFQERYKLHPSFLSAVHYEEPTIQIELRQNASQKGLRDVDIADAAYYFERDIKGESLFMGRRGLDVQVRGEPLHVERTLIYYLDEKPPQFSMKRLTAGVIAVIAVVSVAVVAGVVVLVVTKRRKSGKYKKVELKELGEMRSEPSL
Assay: flow cytometry (dot plot FL2-H against FL1-H) on HEK293 cells transiently expressing hmTROP-2-B [A]
Conditions: remark: other sources report otherwise

B1: anti-hTROP-2 monoclonal antibody clone K5-116-2-1 (antibody, V domains shown)
VH: QVQLQQPGAELVRPGASVKLSCKASGYTFTSYWITWVKQRPGQGLEWIGNIYPSDSYTNYNQKFRDKATLTVDKSSSTAYMQLSSPTSEDSAVYYCSALFDYWGQGTTLTVSS
VL: DILLTQSPAILSVSPGERVSFSCRASQSIGTSIHWYQQRTNGSPRLLIKYASESISGIPSRFSGSGSGTDFILSINSVESEDIADYYCQQSNSWPFTFGSGTKLEIK
**Q.** Which binding does the source give for B1 here?
**A.** Its binding is “binds”.
